The list shows a part of the results. The signal is at background level for most entries.
Legend:
Assay in all cases: fluorescence intensity of antibody binding to polysaccharide-coupled beads; higher = stronger binding
[1] = biological target: pneumococcal polysaccharide Pn10A
[2] = biological target: pneumococcal polysaccharide Pn10B
[3] = biological target: pneumococcal polysaccharide Pn10C
[4] = biological target: pneumococcal polysaccharide Pn10F
[5] = biological target: pneumococcal polysaccharide Pn11A
[6] = biological target: pneumococcal polysaccharide Pn11B
[7] = biological target: pneumococcal polysaccharide Pn11C
[8] = biological target: pneumococcal polysaccharide Pn11D
[9] = biological target: pneumococcal polysaccharide Pn11F
[10] = biological target: pneumococcal polysaccharide Pn12A
[11] = biological target: pneumococcal polysaccharide Pn12B
[12] = biological target: pneumococcal polysaccharide Pn12F
[13] = biological target: pneumococcal polysaccharide Pn13
[14] = biological target: pneumococcal polysaccharide Pn14
[15] = biological target: pneumococcal polysaccharide Pn15A
[16] = biological target: pneumococcal polysaccharide Pn15B
[17] = biological target: pneumococcal polysaccharide Pn15C
[18] = biological target: pneumococcal polysaccharide Pn15F
[19] = biological target: pneumococcal polysaccharide Pn16A
[20] = biological target: pneumococcal polysaccharide Pn16F
[21] = biological target: pneumococcal polysaccharide Pn17A
[22] = biological target: pneumococcal polysaccharide Pn17F
[23] = biological target: pneumococcal polysaccharide Pn18A
[24] = biological target: pneumococcal polysaccharide Pn18B
[25] = antibody concentration 2337.65 ng/mL
[26] = antibody concentration 12500 ng/mL
[27] = antibody concentration 0.1 ng/mL
[28] = antibody concentration 0.534724 ng/mL
[29] = antibody concentration 2.8593 ng/mL
[30] = antibody concentration 15.2894 ng/mL
[31] = antibody concentration 81.7561 ng/mL
[32] = antibody concentration 437.17 ng/mL

B1: 4-99.2 (protein)
chain 1: QVQLQESGPGLVKPSETLSLTCAVSGYSIRSAYEWGWIRQPPGKGLEYIGYISGESGNTYYSPSLKSRVTISRDTSKNQFSLRLSSVTAADSAVYYCARRGQLIGFDFWGQGVLVTVSS
chain 2: QAAPTQPPSVSGSPGQSVTISCTGTSSDIGYYNAVSWYQHLPGKAPKLMIYEVSKRPSGVSDRFSGSKSGNTASLTISGLQAEDEADYYCSSYAGSNTYIFGAGTRLTVL
In the case of B1, the fluorescence intensity [1, 25] is reported as 26 MFI, the fluorescence intensity [1, 26] is reported as 31.8 MFI and the fluorescence intensity [2, 27] is reported as 21 MFI. It also gave a fluorescence intensity [2, 28] of 26.5 MFI, a fluorescence intensity [2, 29] of 24 MFI and a fluorescence intensity [2, 30] of 21 MFI. For the same binder, the fluorescence intensity [2, 31] was 25 MFI, the fluorescence intensity [2, 32] was 23.2 MFI and the fluorescence intensity [2, 25] was 22.5 MFI. The fluorescence intensity [2, 26] was 29.5 MFI, the fluorescence intensity [3, 27] was 15 MFI and the fluorescence intensity [3, 28] was 16.5 MFI. For the same binder, the fluorescence intensity [3, 29] was 17 MFI, the fluorescence intensity [3, 30] was 16 MFI and the fluorescence intensity [3, 31] was 15.5 MFI. It also gave a fluorescence intensity [3, 32] of 15.5 MFI, a fluorescence intensity [3, 25] of 16.5 MFI and a fluorescence intensity [3, 26] of 21 MFI. It also gave a fluorescence intensity [4, 27] of 18.5 MFI, a fluorescence intensity [4, 28] of 19.5 MFI and a fluorescence intensity [4, 29] of 18.5 MFI. For the same binder, the fluorescence intensity [4, 30] was 21.5 MFI, the fluorescence intensity [4, 31] was 20.5 MFI and the fluorescence intensity [4, 32] was 21.2 MFI. For the same binder, the fluorescence intensity [4, 25] was 19.5 MFI, the fluorescence intensity [4, 26] was 22.2 MFI and the fluorescence intensity [5, 27] was 28 MFI. The fluorescence intensity [5, 28] was 26.5 MFI, the fluorescence intensity [5, 29] was 27 MFI and the fluorescence intensity [5, 30] was 26 MFI. For the same binder, the fluorescence intensity [5, 31] was 27.5 MFI, the fluorescence intensity [5, 32] was 29.5 MFI and the fluorescence intensity [5, 25] was 33 MFI. The fluorescence intensity [5, 26] was 43 MFI, the fluorescence intensity [6, 27] was 24.5 MFI and the fluorescence intensity [6, 28] was 25 MFI. It also gave a fluorescence intensity [6, 29] of 25.5 MFI, a fluorescence intensity [6, 30] of 22 MFI and a fluorescence intensity [6, 31] of 22.5 MFI. The fluorescence intensity [6, 32] was 24.8 MFI, the fluorescence intensity [6, 25] was 28 MFI and the fluorescence intensity [6, 26] was 33.5 MFI. It also gave a fluorescence intensity [7, 27] of 21.5 MFI, a fluorescence intensity [7, 28] of 22 MFI and a fluorescence intensity [7, 29] of 20.5 MFI. It also gave a fluorescence intensity [7, 30] of 23 MFI, a fluorescence intensity [7, 31] of 24 MFI and a fluorescence intensity [7, 32] of 23.5 MFI. For the same binder, the fluorescence intensity [7, 25] was 28 MFI, the fluorescence intensity [7, 26] was 73 MFI and the fluorescence intensity [8, 27] was 22 MFI. For the same binder, the fluorescence intensity [8, 28] was 22.5 MFI, the fluorescence intensity [8, 29] was 22 MFI and the fluorescence intensity [8, 30] was 24 MFI. It also gave a fluorescence intensity [8, 31] of 20.2 MFI, a fluorescence intensity [8, 32] of 23.2 MFI and a fluorescence intensity [8, 25] of 25.8 MFI. The fluorescence intensity [8, 26] was 43.5 MFI, the fluorescence intensity [9, 27] was 13 MFI and the fluorescence intensity [9, 28] was 15 MFI. For the same binder, the fluorescence intensity [9, 29] was 13.2 MFI, the fluorescence intensity [9, 30] was 14.2 MFI and the fluorescence intensity [9, 31] was 10.5 MFI. The fluorescence intensity [9, 32] was 14.5 MFI, the fluorescence intensity [9, 25] was 15.2 MFI and the fluorescence intensity [9, 26] was 20 MFI. The fluorescence intensity [10, 27] was 15 MFI, the fluorescence intensity [10, 28] was 14.8 MFI and the fluorescence intensity [10, 29] was 15 MFI. The fluorescence intensity [10, 30] was 15.5 MFI, the fluorescence intensity [10, 31] was 15 MFI and the fluorescence intensity [10, 32] was 15.5 MFI. It also gave a fluorescence intensity [10, 25] of 16.8 MFI, a fluorescence intensity [10, 26] of 27.5 MFI and a fluorescence intensity [11, 27] of 14.5 MFI. It also gave a fluorescence intensity [11, 28] of 14.5 MFI, a fluorescence intensity [11, 29] of 16.5 MFI and a fluorescence intensity [11, 30] of 13.5 MFI. For the same binder, the fluorescence intensity [11, 31] was 13.8 MFI, the fluorescence intensity [11, 32] was 16.2 MFI and the fluorescence intensity [11, 25] was 17.2 MFI. The fluorescence intensity [11, 26] was 26.8 MFI, the fluorescence intensity [12, 27] was 17.5 MFI and the fluorescence intensity [12, 28] was 16.5 MFI. For the same binder, the fluorescence intensity [12, 29] was 19.5 MFI, the fluorescence intensity [12, 30] was 18 MFI and the fluorescence intensity [12, 31] was 18 MFI. It also gave a fluorescence intensity [12, 32] of 20.5 MFI, a fluorescence intensity [12, 25] of 21.5 MFI and a fluorescence intensity [12, 26] of 29.5 MFI. The fluorescence intensity [13, 27] was 18.2 MFI, the fluorescence intensity [13, 28] was 17.5 MFI and the fluorescence intensity [13, 29] was 19.2 MFI. It also gave a fluorescence intensity [13, 30] of 18 MFI, a fluorescence intensity [13, 31] of 18.5 MFI and a fluorescence intensity [13, 32] of 19 MFI. For the same binder, the fluorescence intensity [13, 25] was 19.5 MFI, the fluorescence intensity [13, 26] was 26.5 MFI and the fluorescence intensity [14, 27] was 14.5 MFI. The fluorescence intensity [14, 28] was 14.5 MFI, the fluorescence intensity [14, 29] was 13.8 MFI and the fluorescence intensity [14, 30] was 13.5 MFI. For the same binder, the fluorescence intensity [14, 31] was 14 MFI, the fluorescence intensity [14, 32] was 16 MFI and the fluorescence intensity [14, 25] was 20 MFI. For the same binder, the fluorescence intensity [14, 26] was 51.2 MFI, the fluorescence intensity [15, 27] was 12 MFI and the fluorescence intensity [15, 28] was 11.8 MFI. For the same binder, the fluorescence intensity [15, 29] was 12.2 MFI, the fluorescence intensity [15, 30] was 12.5 MFI and the fluorescence intensity [15, 31] was 12 MFI. The fluorescence intensity [15, 32] was 12.5 MFI, the fluorescence intensity [15, 25] was 12.5 MFI and the fluorescence intensity [15, 26] was 16.5 MFI. For the same binder, the fluorescence intensity [16, 27] was 18.5 MFI, the fluorescence intensity [16, 28] was 18.5 MFI and the fluorescence intensity [16, 29] was 16.2 MFI. The fluorescence intensity [16, 30] was 18 MFI, the fluorescence intensity [16, 31] was 18.5 MFI and the fluorescence intensity [16, 32] was 18.5 MFI. It also gave a fluorescence intensity [16, 25] of 22 MFI, a fluorescence intensity [16, 26] of 27 MFI and a fluorescence intensity [17, 27] of 16.2 MFI. The fluorescence intensity [17, 28] was 17.5 MFI, the fluorescence intensity [17, 29] was 15.5 MFI and the fluorescence intensity [17, 30] was 15.8 MFI. The fluorescence intensity [17, 31] was 15 MFI, the fluorescence intensity [17, 32] was 16.5 MFI and the fluorescence intensity [17, 25] was 19.5 MFI. The fluorescence intensity [17, 26] was 22.5 MFI, the fluorescence intensity [18, 27] was 16.5 MFI and the fluorescence intensity [18, 28] was 16.5 MFI. For the same binder, the fluorescence intensity [18, 29] was 16.5 MFI, the fluorescence intensity [18, 30] was 16.5 MFI and the fluorescence intensity [18, 31] was 18.5 MFI. For the same binder, the fluorescence intensity [18, 32] was 16.5 MFI, the fluorescence intensity [18, 25] was 18.5 MFI and the fluorescence intensity [18, 26] was 25.2 MFI. For the same binder, the fluorescence intensity [19, 27] was 15.2 MFI, the fluorescence intensity [19, 28] was 15.5 MFI and the fluorescence intensity [19, 29] was 13.5 MFI. It also gave a fluorescence intensity [19, 30] of 12.8 MFI, a fluorescence intensity [19, 31] of 13.5 MFI and a fluorescence intensity [19, 32] of 14.2 MFI. The fluorescence intensity [19, 25] was 17.8 MFI, the fluorescence intensity [19, 26] was 20.5 MFI and the fluorescence intensity [20, 27] was 22 MFI. For the same binder, the fluorescence intensity [20, 28] was 22 MFI, the fluorescence intensity [20, 29] was 24.5 MFI and the fluorescence intensity [20, 30] was 20 MFI. The fluorescence intensity [20, 31] was 22.8 MFI, the fluorescence intensity [20, 32] was 25 MFI and the fluorescence intensity [20, 25] was 25.5 MFI. It also gave a fluorescence intensity [20, 26] of 32 MFI, a fluorescence intensity [21, 27] of 20 MFI and a fluorescence intensity [21, 28] of 20.8 MFI. It also gave a fluorescence intensity [21, 29] of 20.5 MFI, a fluorescence intensity [21, 30] of 19.5 MFI and a fluorescence intensity [21, 31] of 21 MFI. The fluorescence intensity [21, 32] was 18.5 MFI, the fluorescence intensity [21, 25] was 20 MFI and the fluorescence intensity [21, 26] was 23.8 MFI. It also gave a fluorescence intensity [22, 27] of 25 MFI, a fluorescence intensity [22, 28] of 25.5 MFI and a fluorescence intensity [22, 29] of 25 MFI. It also gave a fluorescence intensity [22, 30] of 24.5 MFI, a fluorescence intensity [22, 31] of 22.8 MFI and a fluorescence intensity [22, 32] of 27.8 MFI. For the same binder, the fluorescence intensity [22, 25] was 26.5 MFI, the fluorescence intensity [22, 26] was 29.5 MFI and the fluorescence intensity [23, 27] was 22.5 MFI. For the same binder, the fluorescence intensity [23, 28] was 21.8 MFI, the fluorescence intensity [23, 29] was 24 MFI and the fluorescence intensity [23, 30] was 23.8 MFI. The fluorescence intensity [23, 31] was 20.8 MFI, the fluorescence intensity [23, 32] was 23 MFI and the fluorescence intensity [23, 25] was 24.2 MFI. It also gave a fluorescence intensity [23, 26] of 28.8 MFI, a fluorescence intensity [24, 27] of 29.5 MFI and a fluorescence intensity [24, 28] of 29 MFI.

Reference: the supplement of paper PMC11438910
